Experimental data: PubChem BioAssay AID1159599 (NIAID, 2016)
In all, the deposit lists 756 reagents; this is a part drawn at random. Over the whole deposit, 130 (17%) are marked active. 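Calls are two-sided: actives include siRNAs that raised the Tnf reporter as well as ones that lowered it.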 Reagents against one gene are numbered here. Reagent sequences are not shown. The record does not give: the amount of reagent.

Aim: 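Which TLR pathway genes are needed for LPS-driven Tnf promoter activity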
Cells: mouse RAW264.7 G9 macrophage reporter clone cells
Reagent: single siRNA against mouse genes
Timing: 48 to 72 h after siRNA transfection, LPS for the last 16 h
Challenge: LPS (Salmonella minnesota R595), 16 h before fixation; dose not stated
Read-out: 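High-content imaging of red fluorescence driven by the Tnf promoter after LPS, background subtracted, scored per siRNA as a plate-wise median/MAD robust z-score, replicate mean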
Scale: Tnf reporter z-score: higher = stronger Tnf promoter reporter signal after LPS
Call rule: 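Called active if the mean z-score over replicates passes 1.5 in either direction, up or down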
Meaning of the calls: active = strong change either way; inactive = little change

The first 8 entries as a preview:
| gene knocked down | siRNA no. | Tnf reporter z-score, replicate mean | outcome |
| --- | --- | --- | --- |
| Ikbkb (inhibitor of kappaB kinase beta) | 1 | -0.832 | inactive |
| Ikbkb (inhibitor of kappaB kinase beta) | 2 | -2.01 | active |
| Ikbkb (inhibitor of kappaB kinase beta) | 3 | -1.37 | inactive |
| Ikbkb (inhibitor of kappaB kinase beta) | 4 | -0.502 | inactive |
| Ikbkb (inhibitor of kappaB kinase beta) | 5 | -1.26 | inactive |
| Ikbkb (inhibitor of kappaB kinase beta) | 6 | -0.878 | inactive |
| Pik3r3 (phosphoinositide-3-kinase regulatory subunit 3) | 1 | -0.865 | inactive |
| Pik3r3 (phosphoinositide-3-kinase regulatory subunit 3) | 2 | -0.429 | inactive |

The listing, from the first entry:
| gene knocked down | siRNA no. | Tnf reporter z-score, replicate mean | outcome |
| --- | --- | --- | --- |
| Ikbkb (inhibitor of kappaB kinase beta) | 1 | -0.832 | inactive |
| Ikbkb (inhibitor of kappaB kinase beta) | 2 | -2.01 | active |
| Ikbkb (inhibitor of kappaB kinase beta) | 3 | -1.37 | inactive |
| Ikbkb (inhibitor of kappaB kinase beta) | 4 | -0.502 | inactive |
| Ikbkb (inhibitor of kappaB kinase beta) | 5 | -1.26 | inactive |
| Ikbkb (inhibitor of kappaB kinase beta) | 6 | -0.878 | inactive |
| Pik3r3 (phosphoinositide-3-kinase regulatory subunit 3) | 1 | -0.865 | inactive |
| Pik3r3 (phosphoinositide-3-kinase regulatory subunit 3) | 2 | -0.429 | inactive |
| Pik3r3 (phosphoinositide-3-kinase regulatory subunit 3) | 3 | -0.779 | inactive |
| Pik3r3 (phosphoinositide-3-kinase regulatory subunit 3) | 4 | -1.25 | inactive |
| Pik3r3 (phosphoinositide-3-kinase regulatory subunit 3) | 5 | -0.0829 | inactive |
| Pik3r3 (phosphoinositide-3-kinase regulatory subunit 3) | 6 | -1.18 | inactive |
| Atf2 (activating transcription factor 2) | 1 | -0.937 | inactive |
| Atf2 (activating transcription factor 2) | 2 | -1.11 | inactive |
| Atf2 (activating transcription factor 2) | 3 | -0.353 | inactive |
| Atf2 (activating transcription factor 2) | 4 | 1.57 | active |
| Atf2 (activating transcription factor 2) | 5 | -2.17 | active |
| Atf2 (activating transcription factor 2) | 6 | 0.304 | inactive |
| Map2k2 (mitogen-activated protein kinase kinase 2) | 1 | 0.62 | inactive |
| Map2k2 (mitogen-activated protein kinase kinase 2) | 2 | -1.16 | inactive |
| Map2k2 (mitogen-activated protein kinase kinase 2) | 3 | -0.661 | inactive |
| Map2k2 (mitogen-activated protein kinase kinase 2) | 4 | -0.402 | inactive |
| Map2k2 (mitogen-activated protein kinase kinase 2) | 5 | -0.0411 | inactive |
| Map2k2 (mitogen-activated protein kinase kinase 2) | 6 | -1.85 | active |
| Cd180 (CD180 antigen) | 1 | -0.000347 | inactive |
| Cd180 (CD180 antigen) | 2 | 0.341 | inactive |
| Cd180 (CD180 antigen) | 3 | -0.675 | inactive |
| Cd180 (CD180 antigen) | 4 | -1.31 | inactive |
| Cd180 (CD180 antigen) | 5 | -1.57 | active |
| Cd180 (CD180 antigen) | 6 | -0.295 | inactive |
| Pik3cb | 1 | 1.56 | active |
| Pik3cb | 2 | -0.998 | inactive |
| Pik3cb | 3 | -1.3 | inactive |
| Pik3cb | 4 | -0.379 | inactive |
| Pik3cb | 5 | -2.54 | active |
| Pik3cb | 6 | -1.68 | active |
| Elk1 (ETS transcription factor ELK1) | 1 | -1.16 | inactive |
| Elk1 (ETS transcription factor ELK1) | 2 | 0.02 | inactive |
| Elk1 (ETS transcription factor ELK1) | 3 | 0.00714 | inactive |
| Elk1 (ETS transcription factor ELK1) | 4 | -2.12 | active |
| Elk1 (ETS transcription factor ELK1) | 5 | -1.68 | active |
| Elk1 (ETS transcription factor ELK1) | 6 | -0.553 | inactive |
| Ticam2 (TIR domain containing adaptor molecule 2) | 1 | -0.85 | inactive |
| Ticam2 (TIR domain containing adaptor molecule 2) | 2 | -0.874 | inactive |
| Ticam2 (TIR domain containing adaptor molecule 2) | 3 | -1.71 | active |
| Ticam2 (TIR domain containing adaptor molecule 2) | 4 | -0.488 | inactive |
| Ticam2 (TIR domain containing adaptor molecule 2) | 5 | -0.746 | inactive |
| Ticam2 (TIR domain containing adaptor molecule 2) | 6 | -1.45 | inactive |
| Ccl3 (C-C motif chemokine ligand 3) | 1 | -0.497 | inactive |
| Ccl3 (C-C motif chemokine ligand 3) | 2 | -0.371 | inactive |
| Ccl3 (C-C motif chemokine ligand 3) | 3 | -1.67 | active |
| Ccl3 (C-C motif chemokine ligand 3) | 4 | -0.858 | inactive |
| Ccl3 (C-C motif chemokine ligand 3) | 5 | -0.202 | inactive |
| Ccl3 (C-C motif chemokine ligand 3) | 6 | -0.849 | inactive |
| Ikbkg (inhibitor of kappaB kinase gamma) | 1 | 0.221 | inactive |
| Ikbkg (inhibitor of kappaB kinase gamma) | 2 | -1.55 | active |
| Ikbkg (inhibitor of kappaB kinase gamma) | 3 | -1.23 | inactive |
| Ikbkg (inhibitor of kappaB kinase gamma) | 4 | -3.03 | active |
| Ikbkg (inhibitor of kappaB kinase gamma) | 5 | -1.84 | active |
| Ikbkg (inhibitor of kappaB kinase gamma) | 6 | -0.812 | inactive |
| Il1rl1 (interleukin 1 receptor-like 1) | 1 | 1.91 | active |
| Il1rl1 (interleukin 1 receptor-like 1) | 2 | -1.36 | inactive |
| Il1rl1 (interleukin 1 receptor-like 1) | 3 | -0.273 | inactive |
| Il1rl1 (interleukin 1 receptor-like 1) | 4 | 1.02 | inactive |
| Il1rl1 (interleukin 1 receptor-like 1) | 5 | -1.7 | active |
| Il1rl1 (interleukin 1 receptor-like 1) | 6 | 0.0207 | inactive |
| Mapk14 (mitogen-activated protein kinase 14) | 1 | 0.0571 | inactive |
| Mapk14 (mitogen-activated protein kinase 14) | 2 | 0.85 | inactive |
| Mapk14 (mitogen-activated protein kinase 14) | 3 | 0.27 | inactive |
| Mapk14 (mitogen-activated protein kinase 14) | 4 | -0.341 | inactive |
| Mapk14 (mitogen-activated protein kinase 14) | 5 | -0.438 | inactive |
| Mapk14 (mitogen-activated protein kinase 14) | 6 | -0.334 | inactive |
| Rel (Rel proto-oncogene, NFKB subunit) | 1 | -0.528 | inactive |
| Rel (Rel proto-oncogene, NFKB subunit) | 2 | -0.127 | inactive |
| Rel (Rel proto-oncogene, NFKB subunit) | 3 | -0.306 | inactive |
| Rel (Rel proto-oncogene, NFKB subunit) | 4 | -0.387 | inactive |
| Rel (Rel proto-oncogene, NFKB subunit) | 5 | -0.842 | inactive |
| Rel (Rel proto-oncogene, NFKB subunit) | 6 | -1.01 | inactive |
| Mapkapk2 (MAP kinase-activated protein kinase 2) | 1 | -2.35 | active |
| Mapkapk2 (MAP kinase-activated protein kinase 2) | 2 | 0.572 | inactive |
| Mapkapk2 (MAP kinase-activated protein kinase 2) | 3 | -0.304 | inactive |
| Mapkapk2 (MAP kinase-activated protein kinase 2) | 4 | -1.17 | inactive |
| Mapkapk2 (MAP kinase-activated protein kinase 2) | 5 | 1.81 | active |
| Mapkapk2 (MAP kinase-activated protein kinase 2) | 6 | -0.42 | inactive |
| Map2k6 (mitogen-activated protein kinase kinase 6) | 1 | -0.454 | inactive |
| Map2k6 (mitogen-activated protein kinase kinase 6) | 2 | 0.0323 | inactive |
| Map2k6 (mitogen-activated protein kinase kinase 6) | 3 | -0.469 | inactive |
| Map2k6 (mitogen-activated protein kinase kinase 6) | 4 | 1.66 | active |
| Map2k6 (mitogen-activated protein kinase kinase 6) | 5 | -0.93 | inactive |
| Map2k6 (mitogen-activated protein kinase kinase 6) | 6 | 0.911 | inactive |
| Casp8 (caspase 8) | 1 | -0.61 | inactive |
| Casp8 (caspase 8) | 2 | -1.21 | inactive |
| Casp8 (caspase 8) | 3 | 0.131 | inactive |
| Casp8 (caspase 8) | 4 | 0.37 | inactive |
| Casp8 (caspase 8) | 5 | 0.776 | inactive |
| Casp8 (caspase 8) | 6 | 0.918 | inactive |
| Relb (Relb proto-oncogene, NFKB subunit) | 1 | -0.284 | inactive |
| Relb (Relb proto-oncogene, NFKB subunit) | 2 | -0.0301 | inactive |
| Relb (Relb proto-oncogene, NFKB subunit) | 3 | -1.27 | inactive |
| Relb (Relb proto-oncogene, NFKB subunit) | 4 | 0.688 | inactive |
| Relb (Relb proto-oncogene, NFKB subunit) | 5 | -2.23 | active |
| Relb (Relb proto-oncogene, NFKB subunit) | 6 | -0.939 | inactive |
| Map3k14 (mitogen-activated protein kinase kinase kinase 14) | 1 | -0.0235 | inactive |
| Map3k14 (mitogen-activated protein kinase kinase kinase 14) | 2 | 1.35 | inactive |
| Map3k14 (mitogen-activated protein kinase kinase kinase 14) | 3 | -1.29 | inactive |
| Map3k14 (mitogen-activated protein kinase kinase kinase 14) | 4 | 0.195 | inactive |
| Map3k14 (mitogen-activated protein kinase kinase kinase 14) | 5 | -2.48 | active |
| Map3k14 (mitogen-activated protein kinase kinase kinase 14) | 6 | -0.847 | inactive |
| Tlr1 (toll-like receptor 1) | 1 | 0.608 | inactive |
| Tlr1 (toll-like receptor 1) | 2 | 0.164 | inactive |
| Tlr1 (toll-like receptor 1) | 3 | -0.206 | inactive |
| Tlr1 (toll-like receptor 1) | 4 | 0.565 | inactive |
| Tlr1 (toll-like receptor 1) | 5 | -0.187 | inactive |
| Tlr1 (toll-like receptor 1) | 6 | -0.851 | inactive |
